# Laboratory results: publication PMC3189933, “Acylpeptide Hydrolase Inhibition as Targeted Strategy to Induce Proteasomal Down-Regulation” (PLoS ONE, 2011)
# No constants are given. Whether binding was seen depends on the method and setting. Some results given as binding are weak or reduced against the parent protein; the word gives no strength.
# T1: Porcine liver acylpeptide hydrolase (porcine) (UniProt P19205)
# T1 sequence: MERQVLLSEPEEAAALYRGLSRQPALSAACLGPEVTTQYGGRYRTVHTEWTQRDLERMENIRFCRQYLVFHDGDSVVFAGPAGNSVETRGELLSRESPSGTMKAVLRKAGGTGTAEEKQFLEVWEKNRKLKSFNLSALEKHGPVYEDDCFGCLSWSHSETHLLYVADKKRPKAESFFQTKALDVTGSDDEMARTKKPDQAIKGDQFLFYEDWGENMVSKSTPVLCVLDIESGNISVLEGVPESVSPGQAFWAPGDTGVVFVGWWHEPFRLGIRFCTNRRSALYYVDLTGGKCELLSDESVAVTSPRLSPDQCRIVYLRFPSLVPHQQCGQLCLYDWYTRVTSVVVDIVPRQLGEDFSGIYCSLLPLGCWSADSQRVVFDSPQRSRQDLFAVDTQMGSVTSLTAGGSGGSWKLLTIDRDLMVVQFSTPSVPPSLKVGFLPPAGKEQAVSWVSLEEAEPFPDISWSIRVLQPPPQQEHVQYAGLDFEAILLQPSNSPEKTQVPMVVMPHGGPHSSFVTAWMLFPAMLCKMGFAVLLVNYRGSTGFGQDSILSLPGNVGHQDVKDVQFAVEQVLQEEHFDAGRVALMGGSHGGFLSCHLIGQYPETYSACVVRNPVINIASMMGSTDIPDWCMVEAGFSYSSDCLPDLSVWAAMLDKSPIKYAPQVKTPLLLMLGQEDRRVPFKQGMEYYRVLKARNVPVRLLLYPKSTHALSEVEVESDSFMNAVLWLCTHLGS
# How the values were obtained:
# [1] = molecular target: SsCEI 2 (Sulfolobus solfataricus); test: SEC; 100 µM peptide solutions on a BioSep SEC-S2000 column, 50 mM phosphate buffer pH 6.8, 1.0 mL/min; apparent masses from a calibration curve of synthetic peptides; both purified
# [2] = molecular target: T1, Porcine liver acylpeptide hydrolase (porcine); test: enzyme inhibition kinetics; porcine APEH in a reaction mixture with trypsin, α-chymotrypsin, elastase, carboxypeptidase Y, subtilisin and thrombin; data not shown; both purified
# [3] = molecular target: SsCEI 4 (Sulfolobus solfataricus); test: SEC; 100 µM peptide solutions on a BioSep SEC-S2000 column, 50 mM phosphate buffer pH 6.8, 1.0 mL/min; apparent masses from a calibration curve of synthetic peptides; both purified
# [4] = molecular target: SsCEI 3 (Sulfolobus solfataricus); test: as above
binder,measurement,setting,value
TILLEIKNINAD (C-terminal amide; free amino group at the N-terminus (not acetylated)) [SsCEI 2],binding,[1],no binding (tested: 100 µM)
TILAEIKNINAD (C-terminal amide; free amino group at the N-terminus (not acetylated)) [SsCEI 4],binding,[2],binds
same,binding,[3],no binding (tested: 100 µM)
YAIDTILAEIKNINAD (C-terminal amide; free amino group at the N-terminus (not acetylated)) [SsCEI 3],binding,[4],no binding (tested: 100 µM)
